From PubChem BioAssay AID248 (DTP/NCI, 2004)
The list is a part of this screen's results and no random one: it gathers some chemical classes. Not every dose and run of a compound is shown. T/C: endpoint of the treated group in % of that of the vehicle group. Some entries give survivors of the animals treated and no T/C: the source files T/C as zero there, which appears to mark a toxic dose or a test without result, not a measured value. Counts of survivors are from the toxicity check (mostly the fifth day) where no day follows; animals may have died later. Schedule codes are those of the source, taken here to give the interval after Q, in days (D) or hours (H), and the number of doses after X. Some schedules carry Z or #; the key to these is not given. For survival time, the PubChem record calls one and a half times the control and up active, and a quarter to a half above the control has no call in these data; cut-offs in other NCI protocols can differ. Some T/C values are marked as having no survivor count here; that says nothing about deaths at the dose. Some T/C values are followed by the survivors on the day toxicity was checked, most often the fifth; where neither a count nor a note follows, no animal had died by that day.

Test system: L1210 leukemia ip in BDF1 mice, survival T/C
Experiment: NCI In Vivo Anticancer Drug Screen. Data for tumor model L1210 Leukemia (intraperitoneal) in B6D2F1 (BDF1) mice
Settings: T/C endpoint: mean survival time, higher T/C = longer survival
[1] = dose: 100.0 mg/kg/injection, schedule: Q01DX001 (ip), vehicle: saline
[2] = dose: 200.0 mg/kg/injection, schedule: Q01DX001 (ip), vehicle: saline
[3] = dose: 400.0 mg/kg/injection, schedule: Q01DX001 (ip), vehicle: saline
[4] = dose: 25.0 mg/kg/injection, schedule: Q04DX003 (ip), vehicle: Klucel (hydroxypropylcellulose) (HPC)

SMILES: CN1C(=O)CC(C(=O)OC2CN3CCC2CC3)CC1=O (stereo unspecified)
- T/C [1]: 102 % of control
- T/C [2]: 98 % of control
- survivor count [3]: 1 of 6

SMILES: CCOP(=O)(NC(=S)Nc1ccccc1NC(=S)NP(=O)(OCC)OCC)OCC
- survivor count (dose: 12.5 mg/kg/injection, schedule: Q01DX009 (ip), vehicle: saline with Tween-80): 1 of 3
- survivor count (dose: 25.0 mg/kg/injection, schedule: Q01DX009 (ip), vehicle: saline with Tween-80): 0 of 3
- survivor count (dose: 50.0 mg/kg/injection, schedule: Q01DX009 (ip), vehicle: saline with Tween-80): 0 of 3
- T/C (dose: 50.0 mg/kg/injection, schedule: Q01DX009 (ip), vehicle: saline): 91 % of control
- survivor count (dose: 100.0 mg/kg/injection, schedule: Q01DX009 (ip), vehicle: saline): 1 of 3
- survivor count (dose: 200.0 mg/kg/injection, schedule: Q01DX009 (ip), vehicle: saline): 0 of 3

SMILES: O=[N+]([O-])c1cc(Cl)c(O)c([N+](=O)[O-])c1
- T/C (dose: 50.0 mg/kg/injection, schedule: Q01DX001 (ip), vehicle: saline): 96 % of control
- T/C [1]: 98 % of control
- T/C [2]: 98 % of control
- survivor count [3]: 0 of 4

SMILES: CN1C(O)CCOP1(=O)N(CCCl)CCCl (stereo unspecified)
- T/C (dose: 100.0 mg/kg/injection, schedule: Q01DX001 (ip), vehicle: DMSO): 110 % of control
- T/C (dose: 200.0 mg/kg/injection, schedule: Q01DX001 (ip), vehicle: DMSO): 123 % of control [5 of 6 alive]
- T/C (dose: 400.0 mg/kg/injection, schedule: Q01DX001 (ip), vehicle: DMSO): 189 % of control [5 of 6 alive]

SMILES: CN1CN(CCCl)c2ccccc21
- T/C (dose: 3.0 mg/kg/injection, schedule: Q01DX Z (ip), vehicle: saline): 90 % of control
- T/C (dose: 10.0 mg/kg/injection, schedule: Q01DX Z (ip), vehicle: saline): 95 % of control
- T/C (dose: 30.0 mg/kg/injection, schedule: Q01DX Z (ip), vehicle: saline): 93 % of control
- survivor count (dose: 100.0 mg/kg/injection, schedule: Q01DX Z (ip), vehicle: saline): 3 of 6

SMILES: COP(N)(=O)N(CCCl)CCCl (stereo unspecified)
- T/C (dose: 600.0 mg/kg/injection, schedule: Q01DX001 (ip), vehicle: saline): 116 % of control
- T/C (dose: 700.0 mg/kg/injection, schedule: Q01DX001 (ip), vehicle: saline): 118 % of control
- T/C (dose: 800.0 mg/kg/injection, schedule: Q01DX001 (ip), vehicle: saline): 121 % of control
- T/C (dose: 1000.0 mg/kg/injection, schedule: Q01DX001 (ip), vehicle: saline): 104 % of control

SMILES: O=C(O)C1(O)c2ccccc2-c2ccccc21
- T/C (dose: 100.0 mg/kg/injection, schedule: Q04DX003 (ip), vehicle: saline with Tween-80): 97 % of control [survivor count not shown]
- T/C (dose: 200.0 mg/kg/injection, schedule: Q04DX003 (ip), vehicle: saline with Tween-80): 91 % of control [survivor count not shown]
- T/C (dose: 400.0 mg/kg/injection, schedule: Q04DX003 (ip), vehicle: saline with Tween-80): 102 % of control [survivor count not shown]

SMILES: FC1(F)SC2C3CCC(C3)C2C1(F)Cl (stereo unspecified)
- T/C (dose: 0.75 mg/kg/injection, schedule: Q01DX009 (ip), vehicle: Klucel (hydroxypropylcellulose) (HPC)): 91 % of control
- T/C (dose: 1.5 mg/kg/injection, schedule: Q01DX009 (ip), vehicle: Klucel (hydroxypropylcellulose) (HPC)): 96 % of control [5 of 6 alive]
- survivor count (dose: 3.0 mg/kg/injection, schedule: Q01DX009 (ip), vehicle: Klucel (hydroxypropylcellulose) (HPC)): 3 of 6
- T/C (dose: 6.0 mg/kg/injection, schedule: Q04DX003 (ip), vehicle: Klucel (hydroxypropylcellulose) (HPC)): 98 % of control [5 of 6 alive]
- survivor count (dose: 6.25 mg/kg/injection, schedule: Q01DX009 (ip), vehicle: Klucel (hydroxypropylcellulose) (HPC)): 0 of 6
- T/C (dose: 12.0 mg/kg/injection, schedule: Q04DX003 (ip), vehicle: Klucel (hydroxypropylcellulose) (HPC)): 101 % of control
- survivor count (dose: 12.5 mg/kg/injection, schedule: Q01DX009 (ip), vehicle: Klucel (hydroxypropylcellulose) (HPC)): 1 of 6
- survivor count (dose: 25.0 mg/kg/injection, schedule: Q01DX009 (ip), vehicle: Klucel (hydroxypropylcellulose) (HPC)): 0 of 6
- T/C [4]: 107 % of control [4 of 6 alive]
- survivor count [4]: 0 of 6
- survivor count (dose: 50.0 mg/kg/injection, schedule: Q04DX003 (ip), vehicle: Klucel (hydroxypropylcellulose) (HPC)): 1 of 6
- survivor count (dose: 100.0 mg/kg/injection, schedule: Q04DX003 (ip), vehicle: Klucel (hydroxypropylcellulose) (HPC)): 0 of 6
- survivor count (dose: 200.0 mg/kg/injection, schedule: Q04DX003 (ip), vehicle: Klucel (hydroxypropylcellulose) (HPC)): 0 of 6
- survivor count (dose: 400.0 mg/kg/injection, schedule: Q04DX003 (ip), vehicle: Klucel (hydroxypropylcellulose) (HPC)): 0 of 6
